For at least one compound, name, drawing or mass did not settle the structure.
Legend:
[1] = test system: E. coli strain JP750; type: cell-based, Escherichia coli; conditions: 2 hours treatment
Description: The dose-dependent cytological profiles for the various classes of antibiotics was determined. In general, a series of cultures of the appropriate strain were grown in LB at 30° C. until the cultures reached a density of approximately 2×10^8 cells/ml, at which point the compound of interest was added so that the final concentrations ranged from 0 to 200 μg/ml. For each compound, samples representing ⅕×, 1× and 5× the MIC were examined. Samples were taken at various times after addition of drug (ranging from 0.2 to 3 hours). The cells were stained with FM 4-64 (1 μg/ml) to visualize the cell membranes and DAPI (5 μg/ml) to visualize the chromosome (Pogliano et al. (1999) Mol. Microbiol. 31:1149).
Images of each stain and any fluorescently-tagged fusion protein present in the strain were then captured using a high resolution microscope. Cell length and width, chromosome length and shape, distance of the chromosome from each cell pole, the number of chromosomes per cell, and the presence and distribution of GFP (or GFP fusions) present within the cells were measured.
Strain JP750 expresses a SeqA-GFP fusion from an IPTG dependent promoter. SeqA-GFP forms fluorescent foci that indicate the position of DNA replication forks/hemimethylated DNA within the cell (Brendler et al. (2000) EMBO 19:6249). […]

[2] = test system: Escherichia coli and Bacillus subtilis cells; assay: Summary of cytological profiles by mechanism of action (FIG. 1); type: cell-based; conditions: example compound of the MOA class
Description: FIG. 1. Summary of cytological profiles for drugs with the indicated mechanisms of action (MOA).
To determine if different classes of antimicrobials can be distinguished based on cytological parameters, comparative cytological analysis of Escherichia coli and Bacillus subtilis cells treated with several different classes of antibiotics was performed. […] Also included were nonspecific inhibitors such as bleach, ethidium bromide, and sodium docecyl sulfate. […] This analysis is expanded to molecules with unknown MOAs as described below.

Compound	chromosome morphology [1]	cytological profile (FIG. 1 summary) [2]
NC[C@H]1O[C@H](O[C@H]2[C@H](O)[C@@H](O[C@H]3O[C@H](CO)[C@@H](O)[C@H](N)[C@H]3O)[C@H](N)C[C@@H]2N)[C@H](O)[C@@H](O)[C@@H]1O [kanamycin]	condensed chromosomes but not ring formation	produces wider cells, with chromosomes condensed into a non-toroidal structure
CO[C@H]1/C=C/O[C@@]2(C)Oc3c(C)c(O)c4c(O)c(c(/C=N/N5CCN(C)CC5)c(O)c4c3C2=O)NC(=O)/C(C)=C\C=C\[C@H](C)[C@H](O)[C@@H](C)[C@@H](O)[C@@H](C)[C@H](OC(C)=O)[C@@H]1C [rifampicin]	–	causes the chromosome to decondense and produce wider cells
CN(C)[C@@H]1C(O)=C(C(N)=O)C(=O)[C@@]2(O)C(O)=C3C(=O)c4c(O)cccc4[C@@](C)(O)[C@H]3C[C@@H]12 [tetracycline]	caused chromosomes to form rings	leads to a toroidal chromosome and wider cells

Reference: patent US20130324437A1, “METHOD FOR IDENTIFYING ANTIMICROBIAL COMPOUNDS AND DETERMINING ANTIBIOTIC SENSITIVITY” (THE REGENTS OF THE UNIVERSITY OF CALIFORNIA, priority 2010, published 2013)
